{
  "sequences": {"note": "Sequences of proteins named here, by UniProt entry; tags and fusion partners are left off.", "UniProt P29067": "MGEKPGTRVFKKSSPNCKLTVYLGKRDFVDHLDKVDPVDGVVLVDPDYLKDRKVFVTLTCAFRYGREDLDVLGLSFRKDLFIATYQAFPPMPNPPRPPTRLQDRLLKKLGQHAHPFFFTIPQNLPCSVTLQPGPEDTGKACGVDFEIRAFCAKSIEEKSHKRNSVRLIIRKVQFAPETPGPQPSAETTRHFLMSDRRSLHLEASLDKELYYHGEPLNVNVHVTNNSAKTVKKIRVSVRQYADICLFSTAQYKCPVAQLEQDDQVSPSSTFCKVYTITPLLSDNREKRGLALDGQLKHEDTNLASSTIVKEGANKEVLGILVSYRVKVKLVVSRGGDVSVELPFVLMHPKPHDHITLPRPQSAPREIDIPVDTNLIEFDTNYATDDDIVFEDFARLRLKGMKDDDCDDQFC", "UniProt P28741": "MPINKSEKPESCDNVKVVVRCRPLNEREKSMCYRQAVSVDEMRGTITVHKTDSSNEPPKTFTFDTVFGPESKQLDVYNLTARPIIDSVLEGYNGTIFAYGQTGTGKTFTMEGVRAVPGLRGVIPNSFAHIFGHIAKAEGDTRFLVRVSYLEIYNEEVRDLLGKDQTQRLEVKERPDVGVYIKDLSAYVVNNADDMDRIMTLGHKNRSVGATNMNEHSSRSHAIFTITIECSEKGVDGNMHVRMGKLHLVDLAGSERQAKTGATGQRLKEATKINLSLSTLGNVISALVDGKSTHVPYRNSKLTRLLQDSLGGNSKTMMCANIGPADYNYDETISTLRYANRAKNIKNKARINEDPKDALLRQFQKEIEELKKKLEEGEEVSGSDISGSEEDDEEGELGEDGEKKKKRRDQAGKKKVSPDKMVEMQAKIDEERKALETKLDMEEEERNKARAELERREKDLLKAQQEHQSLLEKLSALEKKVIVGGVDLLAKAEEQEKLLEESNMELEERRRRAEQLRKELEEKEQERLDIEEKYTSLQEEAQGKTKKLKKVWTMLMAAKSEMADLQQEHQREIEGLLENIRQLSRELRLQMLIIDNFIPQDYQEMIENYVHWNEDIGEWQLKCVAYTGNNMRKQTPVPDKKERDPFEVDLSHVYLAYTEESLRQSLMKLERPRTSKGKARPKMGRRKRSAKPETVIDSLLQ", "UniProt Q9Y496": "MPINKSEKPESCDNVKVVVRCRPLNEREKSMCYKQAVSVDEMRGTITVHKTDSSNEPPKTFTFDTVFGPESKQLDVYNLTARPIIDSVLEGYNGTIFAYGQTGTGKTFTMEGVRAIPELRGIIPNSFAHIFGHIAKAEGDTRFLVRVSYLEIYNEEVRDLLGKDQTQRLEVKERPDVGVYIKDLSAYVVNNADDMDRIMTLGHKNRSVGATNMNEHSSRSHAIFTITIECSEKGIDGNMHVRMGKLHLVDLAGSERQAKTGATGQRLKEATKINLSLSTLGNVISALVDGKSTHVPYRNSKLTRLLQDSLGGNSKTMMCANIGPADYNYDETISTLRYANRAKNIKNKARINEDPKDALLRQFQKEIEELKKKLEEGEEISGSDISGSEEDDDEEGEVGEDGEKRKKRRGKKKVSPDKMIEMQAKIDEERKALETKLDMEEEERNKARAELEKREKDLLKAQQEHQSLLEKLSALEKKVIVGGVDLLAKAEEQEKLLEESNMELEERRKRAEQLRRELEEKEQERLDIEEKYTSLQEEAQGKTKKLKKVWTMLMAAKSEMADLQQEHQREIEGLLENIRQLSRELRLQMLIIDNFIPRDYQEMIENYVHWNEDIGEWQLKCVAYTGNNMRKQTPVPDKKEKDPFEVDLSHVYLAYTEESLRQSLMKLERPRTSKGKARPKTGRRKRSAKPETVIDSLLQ"},
  "source": "paper PMC2579577",
  "molecules": {"B1": {"name": "GFP-tagged 14-3-3η (protein, UniProt Q04917 1-246)", "chain": "MGDREQLLQRARLAEQAERYDDMASAMKAVTELNEPLSNEDRNLLSVAYKNVVGARRSSWRVISSIEQKTMADGNEKKLEKVKAYREKIEKELETVCNDVLSLLDKFLIKNCNDFQYESKVFYLKMKGDYYRYLAEVASGEKKNSVVEASEAAYKEAFEISKEQMQPTHPIRLGLALNFSVFYYEIQNAPEQACLLAKQAFDDAIAELDTLNEDSYKDSTLIMQLLRDNLTLWTSDQQDEEAGEGN"}},
  "key": {"GST-βarr2 fusion protein": {"target": "GST-βarr2 fusion protein (UniProt P29067)", "assay": "pull-down; 25 µg GST fusion immobilized on glutathione-Sepharose beads; cell lysates (500 µg of total proteins) incubated 12 h at 4°C in 50 mM Tris HCl pH 7.5, 150 mM NaCl, 1% NP40, 0.5% sodium deoxycholate; washes up to 500 mM NaCl; Western blot; only the target purified"}, "myc-tagged 14-3-3η": {"target": "T1, myc-tagged 14-3-3η (UniProt Q04917)", "T1 sequence": "B1 chain", "assay": "co-IP; COS cells transfected; lysates immunoprecipitated with 9E10 anti-myc antibody, 12 h at 4°C; Western blot with antibodies against Flag, Myc or Kif3A"}, "[1]": {"target": "Flag-tagged βarr2 (wild type) (rat) (UniProt P29067)", "assay": "co-IP; COS-1 cells transiently transfected; lysates (500 µg) incubated 12 h at 4°C with M2 anti-Flag affinity agarose; washes up to 500 mM NaCl; Western blot"}},
  "note": "These are yes or no findings as the source states them, for the method shown. Binding seen in cells or lysates may run through a third protein. Some binding calls cover weakened binding; strength is not graded here. For some of these results: Where a sequence is shown, tags or fusion partners need not be part of it.",
  "data": [
    {"molecule": "Endogenous Kif3A (MEFs) (from UniProt P28741 1-701)", "values": [
      {"measurement": "binding", "setting": "GST-βarr2 fusion protein", "result": "binds"}
    ]},
    {"molecule": "Endogenous Kif3A (RPE1 cells) (from UniProt Q9Y496 1-699)", "values": [
      {"measurement": "binding", "setting": "GST-βarr2 fusion protein", "result": "binds"}
    ]},
    {"molecule": "Flag-tagged βarr2 (wild type) (from UniProt P29067 1-410)", "values": [
      {"measurement": "binding", "setting": "myc-tagged 14-3-3η", "result": "binds"}
    ]},
    {"molecule": "B1", "values": [
      {"measurement": "binding", "setting": "[1]", "result": "binds"}
    ]}
  ]
}
